In article PMC8224239 one finds binding data, which are given here for two substances.

Chains of the proteins cited; added tags and fusions are not shown.
UniProt O95905: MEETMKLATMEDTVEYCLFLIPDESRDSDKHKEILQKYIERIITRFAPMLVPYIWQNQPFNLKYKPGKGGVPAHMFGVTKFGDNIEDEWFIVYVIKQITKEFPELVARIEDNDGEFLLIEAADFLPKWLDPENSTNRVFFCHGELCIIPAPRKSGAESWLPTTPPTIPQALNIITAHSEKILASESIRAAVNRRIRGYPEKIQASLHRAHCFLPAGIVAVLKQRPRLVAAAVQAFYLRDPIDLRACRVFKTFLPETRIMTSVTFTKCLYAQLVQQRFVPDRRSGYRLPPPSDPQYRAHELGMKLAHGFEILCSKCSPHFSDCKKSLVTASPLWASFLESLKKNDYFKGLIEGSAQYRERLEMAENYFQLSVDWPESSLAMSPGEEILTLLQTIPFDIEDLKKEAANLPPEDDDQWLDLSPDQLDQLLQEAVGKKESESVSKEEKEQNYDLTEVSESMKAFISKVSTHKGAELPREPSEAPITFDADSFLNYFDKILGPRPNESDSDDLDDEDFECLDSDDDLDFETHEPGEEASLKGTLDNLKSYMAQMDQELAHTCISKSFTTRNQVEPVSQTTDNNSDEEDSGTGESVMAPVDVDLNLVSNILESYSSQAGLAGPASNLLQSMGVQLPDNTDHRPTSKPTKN
UniProt Q13838: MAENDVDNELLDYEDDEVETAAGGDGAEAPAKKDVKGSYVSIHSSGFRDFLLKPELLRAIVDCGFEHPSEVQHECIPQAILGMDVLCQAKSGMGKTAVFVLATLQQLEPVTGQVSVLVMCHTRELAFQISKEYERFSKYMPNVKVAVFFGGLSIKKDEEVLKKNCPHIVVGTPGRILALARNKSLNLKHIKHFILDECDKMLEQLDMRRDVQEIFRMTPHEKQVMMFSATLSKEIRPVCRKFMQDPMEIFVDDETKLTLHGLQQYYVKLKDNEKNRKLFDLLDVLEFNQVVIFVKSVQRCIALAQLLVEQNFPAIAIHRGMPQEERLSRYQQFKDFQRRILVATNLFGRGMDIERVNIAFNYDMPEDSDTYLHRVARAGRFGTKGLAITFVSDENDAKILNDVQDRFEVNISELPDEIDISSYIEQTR
UniProt O75643: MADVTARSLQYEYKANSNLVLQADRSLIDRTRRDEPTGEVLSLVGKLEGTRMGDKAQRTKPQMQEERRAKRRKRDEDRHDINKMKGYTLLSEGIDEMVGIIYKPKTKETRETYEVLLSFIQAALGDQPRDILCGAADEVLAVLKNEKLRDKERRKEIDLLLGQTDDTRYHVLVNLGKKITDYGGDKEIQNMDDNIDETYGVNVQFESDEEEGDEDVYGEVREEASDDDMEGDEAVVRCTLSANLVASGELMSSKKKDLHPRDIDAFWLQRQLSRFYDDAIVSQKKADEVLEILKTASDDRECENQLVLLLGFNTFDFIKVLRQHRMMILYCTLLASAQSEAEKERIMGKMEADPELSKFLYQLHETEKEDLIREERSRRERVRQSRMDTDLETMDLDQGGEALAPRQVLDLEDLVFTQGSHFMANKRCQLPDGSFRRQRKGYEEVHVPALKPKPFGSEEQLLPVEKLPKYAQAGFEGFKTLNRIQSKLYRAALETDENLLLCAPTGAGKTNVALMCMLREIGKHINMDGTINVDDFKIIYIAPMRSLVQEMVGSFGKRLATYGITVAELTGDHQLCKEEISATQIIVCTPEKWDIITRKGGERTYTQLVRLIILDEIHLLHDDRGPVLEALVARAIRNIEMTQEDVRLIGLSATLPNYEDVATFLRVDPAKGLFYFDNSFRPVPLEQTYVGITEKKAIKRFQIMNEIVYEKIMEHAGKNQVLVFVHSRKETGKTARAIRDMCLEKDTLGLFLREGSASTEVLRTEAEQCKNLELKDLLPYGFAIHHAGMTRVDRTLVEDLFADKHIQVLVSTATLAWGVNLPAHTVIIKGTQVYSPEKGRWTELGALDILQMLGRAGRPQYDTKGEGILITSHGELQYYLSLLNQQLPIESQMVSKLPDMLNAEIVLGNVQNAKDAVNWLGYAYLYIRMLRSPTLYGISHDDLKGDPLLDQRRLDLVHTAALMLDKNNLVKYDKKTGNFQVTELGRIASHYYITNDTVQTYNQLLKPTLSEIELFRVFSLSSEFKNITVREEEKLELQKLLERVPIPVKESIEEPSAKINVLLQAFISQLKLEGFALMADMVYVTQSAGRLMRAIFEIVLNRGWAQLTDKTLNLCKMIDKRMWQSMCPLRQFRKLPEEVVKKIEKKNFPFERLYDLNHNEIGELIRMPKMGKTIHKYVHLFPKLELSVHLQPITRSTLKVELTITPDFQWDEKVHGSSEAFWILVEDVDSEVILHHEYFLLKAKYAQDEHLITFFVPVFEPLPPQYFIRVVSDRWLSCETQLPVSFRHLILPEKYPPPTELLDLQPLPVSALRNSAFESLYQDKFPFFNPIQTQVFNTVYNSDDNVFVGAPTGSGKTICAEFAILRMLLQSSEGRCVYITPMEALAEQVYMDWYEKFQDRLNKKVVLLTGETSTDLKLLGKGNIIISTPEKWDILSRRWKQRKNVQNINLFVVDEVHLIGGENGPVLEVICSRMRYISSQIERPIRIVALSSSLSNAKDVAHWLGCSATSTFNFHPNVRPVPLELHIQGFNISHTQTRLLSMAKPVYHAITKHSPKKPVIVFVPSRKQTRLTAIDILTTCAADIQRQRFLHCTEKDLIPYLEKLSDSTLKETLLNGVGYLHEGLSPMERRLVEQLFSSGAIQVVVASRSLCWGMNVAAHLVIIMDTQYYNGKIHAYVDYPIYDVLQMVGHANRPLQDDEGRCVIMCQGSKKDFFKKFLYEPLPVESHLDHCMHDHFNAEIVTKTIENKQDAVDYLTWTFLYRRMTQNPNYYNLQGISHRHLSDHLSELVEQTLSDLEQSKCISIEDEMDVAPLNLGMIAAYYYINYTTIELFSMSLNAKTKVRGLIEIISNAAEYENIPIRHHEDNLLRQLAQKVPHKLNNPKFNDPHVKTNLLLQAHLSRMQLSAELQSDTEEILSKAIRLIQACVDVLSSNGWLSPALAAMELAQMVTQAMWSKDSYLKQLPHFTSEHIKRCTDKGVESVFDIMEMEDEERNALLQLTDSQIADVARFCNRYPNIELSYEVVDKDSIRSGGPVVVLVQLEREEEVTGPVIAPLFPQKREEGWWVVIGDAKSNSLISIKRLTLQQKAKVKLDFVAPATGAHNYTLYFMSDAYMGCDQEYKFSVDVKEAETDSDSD

The target in assay [1] is recombinant ECD protein with an N-terminal glutathione transferase (GST) and a C-terminal FLAG tag (human) (UniProt O95905). Briefly: affinity purification with mass spectrometry; in vitro tandem affinity purification with recombinant GST-ECD-FLAG as bait for cellular proteins; bound proteins identified by mass spectrometry; only the target purified.
Assay [2] concerns the target FLAG-tagged WT (wild-type) ECD (human) (UniProt O95905). Briefly: affinity purification with mass spectrometry; FLAG-tagged ECD expressed in HEK-293T cells; affinity purification of ECD-associated proteins; mass spectrometry.

These are yes or no findings as the source states them, for the method shown. In cells and extracts the contact can be indirect. These calls come from enrichment with a bait or labelling near it, and not all partners need be listed.

For DDX39B (from UniProt Q13838 1-428), the binding entry in assay [1] and in assay [2] was “binds” throughout.

In the case of BRR2 (from UniProt O75643 1-2136), the binding entry in assay [1] and in assay [2] was “binds” throughout.
